# Test results: article PMC5996148
# Several values for one entry are separate records, joined by “and”; a condition that tells them apart may be missing. Identical values can stand only once. The list shows a part of the results. For some assays here: Construct or isoform of the protein are uncertain.
# What was measured:
# Test in all cases: protein microarray (ProtoArray v5.0), streptavidin-Alexa Fluor 647
# Details in all cases: 3'-biotin; 20 mM Tris (pH 7.5), 5 mM MgCl2, 100 mM KCl, 0.1% Tween-20, A/T-rich and random oligonucleotide blockers; temperature not stated; high values mean tight binding
# GTF2I (human) = test system: GTF2I (human)
# [1] = test system: GTP-binding nuclear protein Ran (human)
# GTPBP8 (human) = test system: GTPBP8 (human)
# GYG2 = molecular target: T1, GYG2 (UniProt O15488)
# T1 sequence: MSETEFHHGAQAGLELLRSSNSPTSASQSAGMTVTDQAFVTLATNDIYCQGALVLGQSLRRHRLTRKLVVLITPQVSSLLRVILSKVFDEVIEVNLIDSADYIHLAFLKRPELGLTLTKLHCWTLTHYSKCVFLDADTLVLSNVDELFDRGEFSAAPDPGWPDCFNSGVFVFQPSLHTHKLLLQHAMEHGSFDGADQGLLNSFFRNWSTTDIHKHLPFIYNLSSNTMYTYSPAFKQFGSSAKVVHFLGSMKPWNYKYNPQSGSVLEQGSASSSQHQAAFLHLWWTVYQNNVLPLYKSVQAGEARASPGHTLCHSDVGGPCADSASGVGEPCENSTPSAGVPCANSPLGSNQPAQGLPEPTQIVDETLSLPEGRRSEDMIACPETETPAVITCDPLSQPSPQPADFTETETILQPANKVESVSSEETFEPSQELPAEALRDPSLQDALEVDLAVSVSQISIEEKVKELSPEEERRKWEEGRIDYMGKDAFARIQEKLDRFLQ
# GYPC = molecular target: T2, GYPC (UniProt P04921)
# T2 sequence: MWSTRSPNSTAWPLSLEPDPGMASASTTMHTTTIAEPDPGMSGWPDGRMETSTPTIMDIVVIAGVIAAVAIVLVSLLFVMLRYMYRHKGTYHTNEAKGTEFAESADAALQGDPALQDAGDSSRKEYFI
# Galectin-3 (human) = test system: Galectin-3 (human)
# [2] = test system: Gamma-soluble NSF attachment protein (human)
# [3] = test system: Ganglioside GM2 activator (human)
# [4] = test system: Geranylgeranyl pyrophosphate synthetase (human)
# [5] = test system: Glucose-6-phosphate translocase (human)
# [6] = test system: Glucose-fructose oxidoreductase domain-containing protein 1 (human)
# [7] = test system: Glutamate decarboxylase 1 (human)
# [8] = test system: Glutamate decarboxylase 2 (human)
# [9] = test system: Glutaminyl-tRNA synthetase (human)
# [10] = test system: Glutathione S-transferase A4 (human)
# [11] = test system: Glutathione S-transferase Mu 5 (human)
# [12] = test system: Glycolipid transfer protein (human)
# [13] = test system: Glycosyltransferase 1 domain-containing protein 1 (human)
# [14] = test system: Guanine nucleotide exchange factor for Rab3A (human)
# [15] = test system: Guanine nucleotide-binding protein subunit alpha-11 (human)
sequence,measurement,setting,value
GGGGACAGGGGTATGGGGAGGGG [G4-3 biotinylated (CtG)],binding signal,GTF2I (human),-0.339 z-score
same,binding signal,[1],-0.331 z-score
same,binding signal,GTPBP8 (human),-0.32 z-score
same,binding signal,GYG2,-0.336 z-score
same,binding signal,GYPC,-0.332 z-score
same,binding signal,Galectin-3 (human),-0.339 z-score
same,binding signal,[2],-0.316 z-score
same,binding signal,[3],-0.328 z-score
same,binding signal,[4],-0.331 z-score
same,binding signal,[5],-0.329 z-score
same,binding signal,[6],-0.343 z-score
same,binding signal,[7],-0.321 z-score
same,binding signal,[8],-0.34 z-score
same,binding signal,[9],-0.332 z-score and -0.344 z-score
same,binding signal,[10],-0.339 z-score
same,binding signal,[11],-0.331 z-score
same,binding signal,[12],-0.344 z-score
same,binding signal,[13],-0.309 z-score
same,binding signal,[14],-0.306 z-score
same,binding signal,[15],-0.322 z-score
